Experimental data from PubChem BioAssay AID1671190 (National Center for Advancing Translational Sciences (NCATS), 2021).
In all, about 580,000 compounds went through this assay and about 6,100 (1.1%) were called active. The shares of active, inactive and inconclusive entries below differ from those in the screen. The call rests on the fitted dose curve; in most records, active means well fitted inhibition curve with a large enough effect; inconclusive means small, poorly fitted or top-dose-only effect, or another doubt; inactive means no such curve, though single readings can be large or run the other way. Potencies of inconclusive entries are doubtful fits and often do not repeat.
On the % scale 0 is the no-effect control and ±100 the full control effect; potency means the concentration at half of the fitted maximal effect.

Amino acid sequences for entries named in this document (tags omitted). A change or cut given only in a name is not applied to a line headed by its entry.
UniProt P18054: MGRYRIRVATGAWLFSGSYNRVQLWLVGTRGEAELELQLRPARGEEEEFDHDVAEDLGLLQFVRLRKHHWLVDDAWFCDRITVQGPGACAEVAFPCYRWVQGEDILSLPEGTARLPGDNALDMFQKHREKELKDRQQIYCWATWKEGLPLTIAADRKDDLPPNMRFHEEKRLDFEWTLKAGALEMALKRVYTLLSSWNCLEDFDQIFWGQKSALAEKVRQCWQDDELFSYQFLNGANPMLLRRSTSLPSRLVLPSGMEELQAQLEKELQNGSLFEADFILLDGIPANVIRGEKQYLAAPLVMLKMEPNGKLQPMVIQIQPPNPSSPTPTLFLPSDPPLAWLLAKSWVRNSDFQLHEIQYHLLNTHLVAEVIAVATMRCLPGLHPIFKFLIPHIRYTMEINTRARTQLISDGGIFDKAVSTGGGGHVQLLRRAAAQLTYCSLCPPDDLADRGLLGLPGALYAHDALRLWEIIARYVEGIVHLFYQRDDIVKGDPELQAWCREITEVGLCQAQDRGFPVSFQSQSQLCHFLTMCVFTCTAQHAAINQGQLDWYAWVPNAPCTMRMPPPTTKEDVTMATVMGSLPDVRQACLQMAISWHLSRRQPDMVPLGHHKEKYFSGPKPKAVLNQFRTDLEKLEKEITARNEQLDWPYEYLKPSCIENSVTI

Each molecule was assayed against Polyunsaturated fatty acid lipoxygenase ALOX12 (Homo sapiens) (UniProt P18054) (assay: Primary qHTS assay for inhibitors of human arachidonate 12S-lipoxygenase (ALOX12): Round 2). Conditions: purified 12hLO, xylenol orange hydroperoxide absorbance; activity change, negative = inhibition: at 108 µM (top of the series) unless noted.
Method in brief: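 Purified human 12hLO (150 nM final) in 25 mM Hepes, 0.01% Triton X-100, pH 7.0 was preincubated 15 min at room temperature with compound. Then 40 uM arachidonic acid was added, 30 min. Hydroperoxide was read by Fe-XO absorbance ratio 573/405 nm.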
With Cc1nc(C(=O)Nc2nc(CC(=O)O)cs2)nn1-c1ccc(Cl)cc1 the Potency was “inactive”.
In the case of O=C(CSc1nnc(CNC(=O)c2ccc(F)cc2)o1)Nc1nccs1, the Potency is reported as “inactive”.
N#Cc1nc(/C=C/c2cccs2)oc1NC1CC1 was tested, and the Potency was active: 25.1 µM.
With CC(C)(Cc1c[nH]c2ccccc12)NCC(O)COc1ccccc1C#N (stereo not given) the Potency was inconclusive: 112 µM [inhibitor, partial curve, poor fit].
For CCCc1[nH][nH]c(=O)c1C(c1ccc(Cl)cc1)C(C#N)C#N (stereo not given), the Potency was inconclusive: 35.5 µM [inhibitor, partial curve, poor fit].
COc1ccc(CCN(Cc2cc3cccc(C)c3[nH]c2=O)C(=O)NC2CCCCC2)cc1OC was tested, and the Potency was inconclusive: 15.8 µM [inhibitor, partial curve, poor fit].
For CCc1ccc(CNC(=O)CSCc2cnn(-c3ccccc3)c2-n2cccc2)cc1, the Potency was “inactive”.
With CCCNC(=O)C(NC(=O)c1ccc(OC)cc1)C1CCN(C(=O)c2ccc3c(c2)OCO3)CC1 (stereo not given) the Potency was inconclusive: 12.6 µM [inhibitor, full curve, poor fit].
In the case of COc1cccc(C(=O)N2CCc3nc(-c4ccccc4)nc(-c4ccc(Cl)cc4)c3C2)c1, the Potency is reported as “inactive”.
N#Cc1ccc(NC(=O)NN2CCCCCC2)cc1 was tested, and the Potency was inconclusive: 25.1 µM [inhibitor, partial curve].
In the case of CC(=O)OCC(=O)c1ccc2ccn(C(C)=O)c2c1, the Potency is reported as “inactive”.
For COc1ccc(-c2cc(C(=O)Oc3ccc(F)cc3)no2)cc1, the Potency was inconclusive: 20 µM [inhibitor, full curve, poor fit].
In the case of CN(C)CCN1C(=O)C(=O)/C(=C(/O)c2ccc(S(=O)(=O)N3CCOCC3)cc2)C1c1ccc(Br)cc1 (stereo not given), the Potency is reported as inconclusive: 79.4 µM [inhibitor, partial curve, poor fit].
C[C@H](CO)N1C[C@H](C)[C@@H](CN(C)C(=O)Nc2ccc3c(c2)OCCO3)OCc2cnnn2CCCC1=O was tested, and the Potency was “inactive”.
For CNC(=O)CC1Sc2ccccc2NC1=O (stereo not given), the Potency was inconclusive: 39.8 µM [inhibitor, partial curve, poor fit].
With CCOc1ncccc1C(=O)Nc1cccc(-n2cnnn2)c1C the Potency was inconclusive: 89.1 µM [inhibitor, single point].
With COc1ccc(C2CC(=O)N3CN(C4CCCCC4)CSC3=C2C#N)cc1 (stereo not given) the Potency was inconclusive: 31.6 µM [inhibitor, partial curve, poor fit].
In the case of COc1cccc(N2C(=O)NC(=NC3CCCC3)C23CCCN(CCC(C)C)C3)c1 (stereo not given), the Potency is reported as inconclusive: 70.8 µM [inhibitor, single point].
With COc1ccc(N(C(=O)c2snc(C(N)=O)c2N)C(C(=O)NC2CCCC2)c2cccs2)c(OC)c1 (stereo not given) the Potency was inconclusive: 2 µM [inhibitor, full curve, poor fit].
In the case of COc1ccc(-c2nn(-c3ccccc3)cc2/C=C(\CC(=O)O)c2nc3ccccc3s2)cc1OC, the Potency is reported as inconclusive: 50.1 µM [inhibitor, partial curve, poor fit].
With COc1cc(-c2c(C#N)c(N)nc3c2CN(C)CC3)cc(OC)c1OC the Potency was inconclusive: 56.2 µM [inhibitor, partial curve, poor fit].
With COc1ccc(NC(=O)CCCS(=O)(=O)c2nc(-c3ccc(OC)c(OC)c3)cc(C(F)(F)F)n2)cc1OC the Potency was “inactive”.
For O=C(OC(C(=O)Nc1ccc([N+](=O)[O-])cc1Br)c1ccccc1)c1ccccc1 (stereo not given), the Potency was inconclusive: 100 µM [inhibitor, single point].
With O=C1N(Cc2ccccc2)CC2(Br)COCOC12O (stereo not given) the Potency was inconclusive: 39.8 µM [inhibitor, partial curve, poor fit].
With CCCCCc1coc2cc(O)ccc2c1=O the Potency was “inactive”.
For COc1cccc(CNC[C@H]2O[C@@H](n3ccc(N)nc3=O)[C@H](O)[C@@H]2O)c1OCc1ccc(F)cc1Cl, the Potency was inconclusive: 35.5 µM [inhibitor, single point].
For CCCc1c(C(=O)OCC)[nH]c2c1C(=O)CC(c1ccc(F)cc1)C2 (stereo not given), the Potency was “inactive”.
In the case of Cc1ccc(NC(=O)COc2ccc(Br)cc2CO)cc1S(=O)(=O)N1CCOCC1, the Potency is reported as “inactive”.
Cc1ccc(Cc2c(-c3ccc(C#N)cc3)nc3c4ccccc4ccn23)cc1 was tested, and the Potency was inconclusive: 4.47 µM [inhibitor, full curve].
CCOc1ccc(CCNC(=O)COC(=O)CCS(=O)(=O)c2ccc(C)cc2)cc1OCC was tested, and the Potency was inconclusive: 63.1 µM [inhibitor, partial curve, poor fit].
CSc1ccc(S(=O)(=O)NCC(=O)OCC(=O)N(C)C2CCCCC2)cc1[N+](=O)[O-] was tested, and the Potency was inconclusive: 44.7 µM [inhibitor, partial curve, poor fit].
CCc1ccc(-c2noc(CCC(=O)Nc3ccccc3N3CCOCC3)n2)cc1 was tested, and the Potency was inconclusive: 56.2 µM [inhibitor, partial curve, poor fit].
O=C(O)c1cnc2ccccc2n1 was tested, and the Potency was inconclusive: 1.58 µM [inhibitor, full curve, poor fit].
Fc1cccc(-c2cnc([C@@H]3COCCN3Cc3ccc(Cl)cc3)[nH]2)c1 was tested, and the Potency was “inactive”.
For CCN(CC)c1ccc(NC(=S)NC(=O)Cc2ccccc2)cc1, the Potency was “inactive”.
In the case of CCOc1cc(C2c3c(oc4ccc(F)cc4c3=O)C(=O)N2Cc2ccc(C)cc2)ccc1O (stereo not given), the Potency is reported as inconclusive: 112 µM [inhibitor, single point].
For CC1CCCC(NC(=O)C2N(CCCN3CCCC3)C(=O)C3C(C(=O)Nc4cccc(Cl)c4)C4C=CC32O4)C1C (stereo not given), the Potency was “inactive”.
In the case of O=C(Cc1c[nH]c2ccccc12)NC1CCN(CC2CCCC2)CC1, the Potency is reported as “inactive”.
For Cc1ccccc1COc1cccc(CNc2ccccc2)c1, the Potency was “inactive”.
For O=C(NCCCN1CCN(c2ccccc2)CC1)c1cc2c(s1)-c1ccccc1OC2, the Potency was “inactive”.
CC(=O)C1=C(O)C(=O)N(c2ccccn2)C1c1ccc(Cl)cc1 (stereo not given) was tested, and the Potency was inconclusive: 0.447 µM [inhibitor, full curve, poor fit].
In the case of COc1cc2c(cc1OC)-c1c(c(C(=O)N3CCCC3)nn1-c1ccccc1F)C2, the Potency is reported as “inactive”.
For COC(=O)C1=C(C(=O)c2ccccc2)C(c2ccc(OC)c(OC)c2)Nc2nnnn21 (stereo not given), the Potency was inconclusive: 63.1 µM [inhibitor, partial curve, poor fit].
O=C(O)CCCc1c(-c2ccccn2)[nH]c2ccccc12 was tested, and the Potency was inconclusive: 3.98 µM [inhibitor, full curve, poor fit].
NC(=O)C1CCN(c2nc(-c3ccc4c(c3)OCCO4)cs2)CC1 was tested, and the Potency was inconclusive: 39.8 µM [inhibitor, partial curve].
Cc1nc(N)nc(N2CCOC(Cc3noc(-c4ccccn4)n3)C2)c1C (stereo not given) was tested, and the Potency was “inactive”.
For CN(CC(=O)Nc1ccccc1C(F)(F)F)C(=O)CSc1nccn1-c1cccc(F)c1, the Potency was “inactive”.
For CCOC(=O)NNc1ccc(C(F)(F)F)cn1, the Potency was inconclusive: 100 µM [inhibitor, partial curve, poor fit].
Cc1ccc(C(=O)CSc2nc3ccccc3c(=O)[nH]2)cc1 was tested, and the Potency was inconclusive: 79.4 µM [inhibitor, single point].
With O=C(c1ccncc1)N1CCn2c(nnc2-c2cncc(Br)c2)C1 the activity change, negative = inhibition was inactive: 4.11% [at 6.33 µM].
In the case of CCCCNC(=O)C1CCN(Cc2nc(-c3ccc(OC)c(OC)c3)oc2C)CC1, the Potency is reported as inconclusive: 3.98 µM [inhibitor, full curve, poor fit].
CC(C)N1CCN(C(=O)C23CCCC=C2N(c2ccccc2)C(=O)CC3)CC1 (stereo not given) was tested, and the Potency was “inactive”.
For CC(C)c1cc(C(=O)Nc2ccc(Cl)cc2F)cs1, the Potency was inconclusive: 44.7 µM [inhibitor, partial curve, poor fit].
For COc1ccc(-c2nc3c(c(-c4ccccc4)n2)CN(C(=O)c2cccc(Cl)c2)CC3)cc1, the Potency was inconclusive: 70.8 µM [inhibitor, partial curve].
CN(C(=O)c1cc2c(=O)n3ccccc3nc2n1C)C1CCCCC1 was tested, and the Potency was inconclusive: 89.1 µM [inhibitor, partial curve, poor fit].
In the case of Cc1ccc(CNC(=O)CN(c2cc(C)cc(C)c2)S(=O)(=O)c2c(C)[nH]c(=O)[nH]c2=O)cc1, the Potency is reported as inconclusive: 39.8 µM [inhibitor, partial curve].
With CC(=O)c1ccc(N2CCN(S(=O)(=O)c3ccccc3)CC2)c(F)c1 the Potency was inconclusive: 3.98 µM [inhibitor, full curve, poor fit].
In the case of Cc1cc(-c2cc(-c3ccc(Cl)cc3)nc(N)c2C#N)co1, the Potency is reported as inconclusive: 3.98 µM [inhibitor, full curve, poor fit].
With Cc1ccc(S(=O)(=O)N2CCc3cc4c(cc3C2C)OCCCO4)cc1 (stereo not given) the Potency was “inactive”.
With Cc1ccc(S(=O)(=O)N2CCN(C(C(=O)NC3CC3)c3ccccc3)CC2)c(C)c1 (stereo not given) the Potency was inconclusive: 50.1 µM [inhibitor, single point].
In the case of CC(C)N1CC2(CC(c3ccccc3F)=NO2)CN1C(=O)c1ccc(C(C)(C)C)cc1 (stereo not given), the Potency is reported as inconclusive: 100 µM [inhibitor, partial curve, poor fit].
With CCc1ccc(C2c3c(n[nH]c3C)C(=O)N2c2ccc(C)cc2)cc1 (stereo not given) the Potency was inconclusive: 1.58 µM [inhibitor, full curve, poor fit].
With CN(C)CCCn1c(=O)[nH]c(=O)c2c1ncn2C the Potency was “inactive”.
For COc1cc(CNn2c(C)n[nH]c2=S)cc(Cl)c1OCC(=O)NC(C)(C)C, the Potency was inconclusive: 25.1 µM [inhibitor, single point].
With NC(=O)CC(NC(=O)Cc1ccc(Br)cc1)c1ccc(NCc2ccc(F)cc2)c([N+](=O)[O-])c1 (stereo not given) the Potency was inconclusive: 158 µM [inhibitor, partial curve, poor fit].
